Source: patent US20110081428A1, “Use of thioflavin-like compounds to increase life span and/or health span” (priority 2009, published 2011)
For part of these data: For at least one compound, name, drawing or mass did not settle the structure. Some of these results come from one statement about several compounds together.

Legend:
wildtype (N2) C. elegans = test: Lifespan assay, wildtype worms; assay type: in vivo; details: 20° C.; for increase in lifespan: N2, 0 through 500 μM; for extension of lifespan of adult worms: N2, 0 to 1 μM, concentrations significantly lower than ThT
Experimental: Lifespan assays were performed as described previously. (McColl, G. et al. Pharmacogenetic analysis of lithium-induced delayed aging in Caenorhabditis elegans. J Biol Chem 283, 350-357 (2008). Briefly, the nematode growth media (NGM) plates were prepared under sterile conditions. 100 μL of concentrated stocks of each of the compounds used in this study were added onto a previously prepared NGM small plate (3 mL volume) immediately spread over the surface of the plate. The final concentrations quoted in the text assume an even distribution of compound throughout the 3 ml plate. The plates were then placed in a laminar flow hood at room temperature for 30 min and then 60 μL of a concentrated suspension of E. coli OP50 was spotted to form a circular lawn on the center of each plate. […] The first day of adulthood is Day 3 in survival curves. There was between-experiment variation in the magnitude of the lifespan extension observed with ThT which appeared to correlate with different suppliers and batches. ThT concentration should be optimized depending on batch and purity and stability of the compound. […] The optimal range for lifespan extension was between 25 and 75 μM.
Animals were scored as alive, dead or lost every other day. […] Animals that died from causes other than ageing, such as sticking to the plate walls, internal hatching of eggs (“bagging”) or gonadal extrusion were censored as were lost worms. Animals were transferred to fresh plates every 3-6 days. All lifespan experiments were performed at 20° C. unless otherwise stated. Survival curves were plotted and statistical analyses (log-rank test) were performed using the Prism 4 software (Graphpad™ Software, Inc., San Diego, Calif., USA).

[1] = system: HE250 [unc-52(e669su250)II]; test: Worm paralysis assay, unc-52 ts mutant; assay type: in vivo, Caenorhabditis elegans; details: HE250, 25° C., 36 h; 50 μM ThT, 100 μM curcumin, 100 μM rifampicin

SMILES | increase in lifespan (wildtype (N2) C. elegans) | extension of lifespan of adult worms (wildtype (N2) C. elegans) | paralysis phenotype of unc-52 mutant [1]
COc1cc(/C=C/C(=O)CC(=O)/C=C/c2ccc(O)c(OC)c2)ccc1O [curcumin, reference compound] | up to 45% | – | –
Oc1ccccc1-c1nc2ccccc2s1 [HBX, 2-(2-hydroxyphenyl)benzothiazole] | – | up to 40% | –
Nc1ccccc1-c1nc2ccccc2[nH]1 [BM, 2-(2-aminophenyl)-1H-benzimidazole] | – | up to 40% | –
CO[C@H]1/C=C/O[C@@]2(C)Oc3c(C)c(O)c4c(O)c(c(/C=N/N5CCN(C)CC5)c(O)c4c3C2=O)NC(=O)/C(C)=C\C=C\[C@H](C)[C@H](O)[C@@H](C)[C@@H](O)[C@@H](C)[C@H](OC(C)=O)[C@@H]1C [rifampicin, reference compound] | up to 45% | – | Protection
Oc1ccccc1-c1nc2ccccc2o1 [HBT, 2-(2-hydroxyphenyl)-benzoxazole] | – | up to 40% | –
